Here are results for three substances from PMC8654949.

By UniProt entry, the sequences of proteins in these tests, tags left out.
UniProt A6NHR9: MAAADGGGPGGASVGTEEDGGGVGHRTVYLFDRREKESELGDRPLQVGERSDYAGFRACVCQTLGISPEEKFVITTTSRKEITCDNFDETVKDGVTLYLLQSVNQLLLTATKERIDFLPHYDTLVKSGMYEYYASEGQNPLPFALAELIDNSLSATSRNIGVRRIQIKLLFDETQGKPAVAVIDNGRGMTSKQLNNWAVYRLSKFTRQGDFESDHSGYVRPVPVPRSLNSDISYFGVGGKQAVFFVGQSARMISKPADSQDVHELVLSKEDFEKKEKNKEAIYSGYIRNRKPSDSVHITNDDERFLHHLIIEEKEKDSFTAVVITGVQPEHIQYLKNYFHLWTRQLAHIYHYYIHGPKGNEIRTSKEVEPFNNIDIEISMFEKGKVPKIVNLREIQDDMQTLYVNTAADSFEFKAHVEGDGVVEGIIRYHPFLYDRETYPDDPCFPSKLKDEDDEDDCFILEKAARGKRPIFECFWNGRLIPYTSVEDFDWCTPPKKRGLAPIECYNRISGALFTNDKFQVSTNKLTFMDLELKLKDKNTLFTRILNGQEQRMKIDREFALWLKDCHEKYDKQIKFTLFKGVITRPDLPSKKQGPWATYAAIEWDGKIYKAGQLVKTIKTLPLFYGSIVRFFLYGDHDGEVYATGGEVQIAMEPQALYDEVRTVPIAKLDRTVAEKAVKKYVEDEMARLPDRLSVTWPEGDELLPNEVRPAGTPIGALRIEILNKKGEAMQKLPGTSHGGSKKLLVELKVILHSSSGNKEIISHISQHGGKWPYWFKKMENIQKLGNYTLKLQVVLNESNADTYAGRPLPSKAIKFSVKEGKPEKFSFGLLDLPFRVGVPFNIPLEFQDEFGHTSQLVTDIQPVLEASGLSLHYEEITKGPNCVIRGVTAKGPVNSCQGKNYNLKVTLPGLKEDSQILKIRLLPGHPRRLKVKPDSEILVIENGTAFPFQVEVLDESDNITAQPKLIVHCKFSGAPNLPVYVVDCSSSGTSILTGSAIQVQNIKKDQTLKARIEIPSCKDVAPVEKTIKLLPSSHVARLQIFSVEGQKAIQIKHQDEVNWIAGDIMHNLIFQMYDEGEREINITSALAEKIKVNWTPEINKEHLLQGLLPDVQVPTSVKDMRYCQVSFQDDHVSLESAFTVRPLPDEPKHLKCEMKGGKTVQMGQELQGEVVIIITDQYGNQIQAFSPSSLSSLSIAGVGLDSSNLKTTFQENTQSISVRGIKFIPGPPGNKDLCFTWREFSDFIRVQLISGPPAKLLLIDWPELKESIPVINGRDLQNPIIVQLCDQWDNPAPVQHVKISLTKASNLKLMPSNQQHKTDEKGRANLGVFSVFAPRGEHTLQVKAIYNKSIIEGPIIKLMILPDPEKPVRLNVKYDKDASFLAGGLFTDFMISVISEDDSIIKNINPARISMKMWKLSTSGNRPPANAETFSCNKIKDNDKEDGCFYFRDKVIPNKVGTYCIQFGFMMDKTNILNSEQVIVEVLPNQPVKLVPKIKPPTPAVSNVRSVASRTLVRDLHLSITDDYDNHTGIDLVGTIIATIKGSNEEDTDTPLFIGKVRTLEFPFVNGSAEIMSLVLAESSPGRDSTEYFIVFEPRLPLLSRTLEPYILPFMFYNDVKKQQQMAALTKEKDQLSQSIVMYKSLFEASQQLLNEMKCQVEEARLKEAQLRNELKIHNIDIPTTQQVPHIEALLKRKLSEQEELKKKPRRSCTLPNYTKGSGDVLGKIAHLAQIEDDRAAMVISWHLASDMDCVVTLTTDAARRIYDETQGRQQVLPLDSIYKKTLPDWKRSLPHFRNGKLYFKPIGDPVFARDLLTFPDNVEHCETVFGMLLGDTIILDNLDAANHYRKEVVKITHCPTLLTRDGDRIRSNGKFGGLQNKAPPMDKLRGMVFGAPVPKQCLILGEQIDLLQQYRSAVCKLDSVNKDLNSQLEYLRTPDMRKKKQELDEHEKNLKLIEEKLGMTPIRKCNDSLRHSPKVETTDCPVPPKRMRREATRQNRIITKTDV
UniProt Q9Y265: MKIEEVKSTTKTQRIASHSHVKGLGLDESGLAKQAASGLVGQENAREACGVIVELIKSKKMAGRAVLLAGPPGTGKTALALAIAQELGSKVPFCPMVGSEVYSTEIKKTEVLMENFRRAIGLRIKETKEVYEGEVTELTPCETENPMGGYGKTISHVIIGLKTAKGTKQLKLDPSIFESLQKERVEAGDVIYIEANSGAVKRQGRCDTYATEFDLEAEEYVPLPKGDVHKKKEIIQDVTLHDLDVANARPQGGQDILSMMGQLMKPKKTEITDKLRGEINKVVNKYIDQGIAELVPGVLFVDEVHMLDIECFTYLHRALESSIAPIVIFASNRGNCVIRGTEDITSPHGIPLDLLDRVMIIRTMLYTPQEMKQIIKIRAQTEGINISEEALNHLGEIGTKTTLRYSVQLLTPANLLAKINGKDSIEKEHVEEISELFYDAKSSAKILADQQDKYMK
UniProt Q14676: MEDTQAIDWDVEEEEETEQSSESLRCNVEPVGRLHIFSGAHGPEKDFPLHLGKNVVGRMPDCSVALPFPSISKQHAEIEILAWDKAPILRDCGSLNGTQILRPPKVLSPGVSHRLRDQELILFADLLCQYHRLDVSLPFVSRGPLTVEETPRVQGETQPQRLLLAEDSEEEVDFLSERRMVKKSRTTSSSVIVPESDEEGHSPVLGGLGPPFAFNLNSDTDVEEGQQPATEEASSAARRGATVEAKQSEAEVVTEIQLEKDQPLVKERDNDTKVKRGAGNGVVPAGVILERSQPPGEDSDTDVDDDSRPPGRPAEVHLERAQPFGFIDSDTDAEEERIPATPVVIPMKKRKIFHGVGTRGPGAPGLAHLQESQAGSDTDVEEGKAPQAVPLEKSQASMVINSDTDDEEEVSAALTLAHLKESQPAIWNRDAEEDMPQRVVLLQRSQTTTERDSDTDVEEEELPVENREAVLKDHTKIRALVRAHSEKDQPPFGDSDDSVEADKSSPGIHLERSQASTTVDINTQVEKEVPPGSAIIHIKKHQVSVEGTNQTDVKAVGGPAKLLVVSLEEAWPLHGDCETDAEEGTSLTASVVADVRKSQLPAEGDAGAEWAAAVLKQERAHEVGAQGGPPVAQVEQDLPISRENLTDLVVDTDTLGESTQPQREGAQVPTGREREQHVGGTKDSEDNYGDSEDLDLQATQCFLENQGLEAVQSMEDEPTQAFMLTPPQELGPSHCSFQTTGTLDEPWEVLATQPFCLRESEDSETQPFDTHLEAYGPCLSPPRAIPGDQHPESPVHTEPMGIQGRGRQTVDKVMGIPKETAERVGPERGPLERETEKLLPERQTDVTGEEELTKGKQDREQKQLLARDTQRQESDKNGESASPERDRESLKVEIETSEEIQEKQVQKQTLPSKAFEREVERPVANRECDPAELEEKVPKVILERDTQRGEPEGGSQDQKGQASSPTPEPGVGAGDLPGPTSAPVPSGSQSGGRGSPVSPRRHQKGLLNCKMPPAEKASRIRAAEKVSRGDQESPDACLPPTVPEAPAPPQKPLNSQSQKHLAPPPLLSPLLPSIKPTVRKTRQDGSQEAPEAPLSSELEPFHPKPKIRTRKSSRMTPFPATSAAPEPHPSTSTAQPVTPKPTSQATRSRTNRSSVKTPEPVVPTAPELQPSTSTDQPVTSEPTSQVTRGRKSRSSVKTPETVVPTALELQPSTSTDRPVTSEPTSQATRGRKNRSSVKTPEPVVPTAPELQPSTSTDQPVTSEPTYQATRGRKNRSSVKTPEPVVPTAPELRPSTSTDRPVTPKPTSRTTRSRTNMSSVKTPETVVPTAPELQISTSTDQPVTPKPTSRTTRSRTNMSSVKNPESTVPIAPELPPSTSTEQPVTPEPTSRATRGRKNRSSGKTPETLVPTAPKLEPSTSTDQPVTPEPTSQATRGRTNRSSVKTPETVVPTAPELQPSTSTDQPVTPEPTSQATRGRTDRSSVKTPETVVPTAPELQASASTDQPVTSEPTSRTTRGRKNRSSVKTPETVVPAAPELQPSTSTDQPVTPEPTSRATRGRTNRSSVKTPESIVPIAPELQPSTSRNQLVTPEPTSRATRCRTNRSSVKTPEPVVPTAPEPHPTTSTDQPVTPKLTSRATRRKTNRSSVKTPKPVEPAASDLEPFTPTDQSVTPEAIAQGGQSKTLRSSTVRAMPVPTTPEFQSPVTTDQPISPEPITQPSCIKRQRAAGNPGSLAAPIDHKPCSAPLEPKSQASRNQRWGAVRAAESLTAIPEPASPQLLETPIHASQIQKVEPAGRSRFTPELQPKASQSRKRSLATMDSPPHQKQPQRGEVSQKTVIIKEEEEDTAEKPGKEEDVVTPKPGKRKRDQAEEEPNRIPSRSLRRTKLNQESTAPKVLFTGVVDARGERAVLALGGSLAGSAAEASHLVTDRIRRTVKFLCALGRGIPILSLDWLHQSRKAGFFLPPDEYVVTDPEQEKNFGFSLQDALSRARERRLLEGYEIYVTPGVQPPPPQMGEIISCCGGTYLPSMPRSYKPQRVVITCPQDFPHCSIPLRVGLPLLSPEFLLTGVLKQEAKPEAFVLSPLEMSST
UniProt O60216: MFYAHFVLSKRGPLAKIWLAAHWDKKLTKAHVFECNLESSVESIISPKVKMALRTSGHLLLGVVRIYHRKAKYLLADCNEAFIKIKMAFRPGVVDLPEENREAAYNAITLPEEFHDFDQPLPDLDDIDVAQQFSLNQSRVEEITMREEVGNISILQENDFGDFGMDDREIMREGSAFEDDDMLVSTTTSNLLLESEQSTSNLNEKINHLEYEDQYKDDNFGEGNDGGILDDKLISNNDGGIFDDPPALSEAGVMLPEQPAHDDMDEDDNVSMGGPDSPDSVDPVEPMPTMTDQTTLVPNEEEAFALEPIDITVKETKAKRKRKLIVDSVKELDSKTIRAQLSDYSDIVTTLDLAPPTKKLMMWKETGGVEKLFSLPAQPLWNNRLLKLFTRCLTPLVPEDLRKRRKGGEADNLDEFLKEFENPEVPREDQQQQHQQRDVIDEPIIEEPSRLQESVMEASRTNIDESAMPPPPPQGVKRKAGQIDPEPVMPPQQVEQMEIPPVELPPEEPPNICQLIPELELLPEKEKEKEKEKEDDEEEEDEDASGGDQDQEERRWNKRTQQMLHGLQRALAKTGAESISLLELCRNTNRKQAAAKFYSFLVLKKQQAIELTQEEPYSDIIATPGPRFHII

The target of this assay is GFP-SMCHD1 (GFP-tagged Structural Maintenance of Chromosomes Hinge Domain Containing 1) (human) (UniProt A6NHR9). Description: affinity purification with mass spectrometry; SILAC-MS; GFP-Trap agarose beads on nuclear lysates of U2OS clones stably expressing GFP-SMCHD1 against GFP-only U2OS control; NP40 lysis buffer (50 mM Tris-HCl pH 8.0, 150 mM NaCl, 1% NP-40, 1 mM MgCl2), sonicated, Benzonase; washes up to 300 mM NaCl; 8 replicates with label swap; H/L ratio > 1.5 taken as candidate.

Results are given in words; binding and its absence hold for the method and conditions named. Binding seen in cells or lysates may run through a third protein. These calls come from enrichment with a bait or labelling near it, and not all partners need be listed.

“RuvB Like AAA ATPase 1 (RUVBL1), endogenous (from UniProt Q9Y265 1-456)”: the binding result was “binds”.

“mediator of DNA damage checkpoint 1 (MDC1) (from UniProt Q14676 1-2089)”: the binding entry is recorded as “binds”. Then “RAD21 (cohesin complex component) (from UniProt O60216 1-631)”, with “binds”.
